PubChem BioAssay AID1508588 – Peter MacCallum Cancer Centre, 2020

Assay: 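Genome-wide search for knock-downs that heighten vemurafenib action in melanoma cells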 (primary screen)
Cell system: human WM266.4 melanoma cells (BRAF V600 mutant)
Knock-down reagent: siRNA pool against human genes, 40 nM
Duration: 96 h from transfection to read-out
Conditions: vemurafenib 300 nM (about IC25), added 48 h after transfection, for 48 h; comparison arm got DMSO vehicle only
Measured: 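Cell gain (DAPI nuclei at end minus before drug, mean of two replicates) and medium lactate by absorbance per cell, both as ratio to non-targeting siRNA, also grouped into fold-change classes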
Reading the numbers: cell gain with vemurafenib: higher = more cell gain than with non-targeting siRNA; lactate per cell with vemurafenib: higher = more lactate made per cell
Call rule: 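a knock-down counts as enhancing when its fold-change classes with vehicle and with vemurafenib, taken together, show a stronger drug effect on cell gain or lactate per cell; exact class pairs not stated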
Calls: active = enhances vemurafenib effect; inactive = no enhancement seen
The whole screen tested about 18,000 reagents; shown is a random part of them. Over the whole deposit, 790 (4.4%) were called active. 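Calls rest on a combination of fold-change classes in drug and vehicle arms, not all shown here.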 Unmarked entries are inactive.

The first 3 records, ahead of the listing:
{"gene": "PAPSS1 (3'-phosphoadenosine 5'-phosphosulfate synthase 1)", "cell gain with vemurafenib": 0.8, "lactate per cell with vemurafenib": 0.84}
{"gene": "GPR141 (G protein-coupled receptor 141)", "cell gain with vemurafenib": 0.31, "lactate per cell with vemurafenib": 1.29}
{"gene": "ALKBH1 (alkB homolog 1, histone H2A dioxygenase)", "cell gain with vemurafenib": 0.86, "lactate per cell with vemurafenib": 0.68}

The list itself, from the first entry:
{"gene": "PAPSS1 (3'-phosphoadenosine 5'-phosphosulfate synthase 1)", "cell gain with vemurafenib": 0.8, "lactate per cell with vemurafenib": 0.84}
{"gene": "GPR141 (G protein-coupled receptor 141)", "cell gain with vemurafenib": 0.31, "lactate per cell with vemurafenib": 1.29}
{"gene": "ALKBH1 (alkB homolog 1, histone H2A dioxygenase)", "cell gain with vemurafenib": 0.86, "lactate per cell with vemurafenib": 0.68}
{"gene": "CIPC (CLOCK interacting pacemaker)", "cell gain with vemurafenib": 0.43, "lactate per cell with vemurafenib": 0.88}
{"gene": "CALML5 (calmodulin like 5)", "cell gain with vemurafenib": 0.64, "lactate per cell with vemurafenib": 1.11}
{"gene": "EGLN2 (egl-9 family hypoxia inducible factor 2)", "cell gain with vemurafenib": 0.25, "lactate per cell with vemurafenib": 0.99}
{"gene": "OR10A4 (olfactory receptor family 10 subfamily A member 4)", "cell gain with vemurafenib": 0.58, "lactate per cell with vemurafenib": 1.43}
{"gene": "BCDIN3D (BCDIN3 domain containing RNA methyltransferase)", "cell gain with vemurafenib": 0.92, "lactate per cell with vemurafenib": 0.66}
{"gene": "SLC25A30", "cell gain with vemurafenib": 0.72, "lactate per cell with vemurafenib": 0.64}
{"gene": "ZBED8 (zinc finger BED-type containing 8)", "cell gain with vemurafenib": 0.26, "lactate per cell with vemurafenib": 1.34}
{"gene": "PCP2 (Purkinje cell protein 2)", "cell gain with vemurafenib": 0.38, "lactate per cell with vemurafenib": 1.22}
{"gene": "EHHADH (enoyl-CoA hydratase and 3-hydroxyacyl CoA dehydrogenase)", "cell gain with vemurafenib": 0.67, "lactate per cell with vemurafenib": 1.06}
{"gene": "LUZP2 (leucine zipper protein 2)", "cell gain with vemurafenib": 0.81, "lactate per cell with vemurafenib": 1.46}
{"gene": "TRPM1", "cell gain with vemurafenib": 0.81, "lactate per cell with vemurafenib": 1.38}
{"gene": "NFKB1 (nuclear factor kappa B subunit 1)", "cell gain with vemurafenib": 0.3, "lactate per cell with vemurafenib": 1.32}
{"gene": "WASH5P (WASP family homolog 5, pseudogene)", "cell gain with vemurafenib": 1.15, "lactate per cell with vemurafenib": 1.18}
{"gene": "PDK1 (pyruvate dehydrogenase kinase 1)", "cell gain with vemurafenib": 1.02, "lactate per cell with vemurafenib": 0.46}
{"gene": "PRY2 (PTPN13 like Y-linked 2)", "cell gain with vemurafenib": "0.61 (active)", "lactate per cell with vemurafenib": 0.29}
{"gene": "WDR24 (WD repeat domain 24)", "cell gain with vemurafenib": 1.04, "lactate per cell with vemurafenib": 0.74}
{"gene": "LOC90462 (retired record)", "cell gain with vemurafenib": "0.3 (active)", "lactate per cell with vemurafenib": 0.45}
{"gene": "NUS1 (NUS1 dehydrodolichyl diphosphate synthase subunit)", "cell gain with vemurafenib": 0.77, "lactate per cell with vemurafenib": 1.33}
{"gene": "JAK1 (Janus kinase 1)", "cell gain with vemurafenib": 0.73, "lactate per cell with vemurafenib": 0.57}
{"gene": "KIAA1586", "cell gain with vemurafenib": 0.39, "lactate per cell with vemurafenib": 1.19}
{"gene": "CDO1 (cysteine dioxygenase type 1)", "cell gain with vemurafenib": 0.87, "lactate per cell with vemurafenib": 1.08}
{"gene": "HPX (hemopexin)", "cell gain with vemurafenib": 0.47, "lactate per cell with vemurafenib": 1.12}
{"gene": "ZNF318 (zinc finger protein 318)", "cell gain with vemurafenib": 0.34, "lactate per cell with vemurafenib": 0.92}
{"gene": "SPINDOC (spindlin interactor and repressor of chromatin binding)", "cell gain with vemurafenib": 0.81, "lactate per cell with vemurafenib": 0.22}
{"gene": "LILRA2 (leukocyte immunoglobulin like receptor A2)", "cell gain with vemurafenib": 0.5, "lactate per cell with vemurafenib": 1.46}
{"gene": "RHOF (ras homolog family member F, filopodia associated)", "cell gain with vemurafenib": 0.78, "lactate per cell with vemurafenib": 0.62}
{"gene": "PLA2G3 (phospholipase A2 group III)", "cell gain with vemurafenib": 0.49, "lactate per cell with vemurafenib": 1.16}
{"gene": "INS (insulin)", "cell gain with vemurafenib": 0.67, "lactate per cell with vemurafenib": 0.6}
{"gene": "SPATC1L (spermatogenesis and centriole associated 1 like)", "cell gain with vemurafenib": 0.31, "lactate per cell with vemurafenib": 1.08}
{"gene": "NPM2 (nucleophosmin/nucleoplasmin 2)", "cell gain with vemurafenib": 0.23, "lactate per cell with vemurafenib": 1.46}
{"gene": "S100A6 (S100 calcium binding protein A6)", "cell gain with vemurafenib": 0.53, "lactate per cell with vemurafenib": 0.68}
{"gene": "RPL9 (ribosomal protein L9)", "cell gain with vemurafenib": -0.08, "lactate per cell with vemurafenib": 1.71}
{"gene": "TAS2R50 (taste 2 receptor member 50)", "cell gain with vemurafenib": 0.51, "lactate per cell with vemurafenib": 1.36}
{"gene": "ATAT1 (alpha tubulin acetyltransferase 1)", "cell gain with vemurafenib": 0.54, "lactate per cell with vemurafenib": 1.45}
{"gene": "MAB21L4 (mab-21 like 4)", "cell gain with vemurafenib": 0.57, "lactate per cell with vemurafenib": 1.9}
{"gene": "TRPS1 (transcriptional repressor GATA binding 1)", "cell gain with vemurafenib": 0.79, "lactate per cell with vemurafenib": 1.45}
{"gene": "EGR1 (early growth response 1)", "cell gain with vemurafenib": 1.05, "lactate per cell with vemurafenib": 0.72}
{"gene": "PEX11G (peroxisomal biogenesis factor 11 gamma)", "cell gain with vemurafenib": -0.1, "lactate per cell with vemurafenib": -0.61}
{"gene": "CMTM1 (CKLF like MARVEL transmembrane domain containing 1)", "cell gain with vemurafenib": 0.39, "lactate per cell with vemurafenib": 0.9}
{"gene": "AKAP17A (A-kinase anchoring protein 17A)", "cell gain with vemurafenib": 0.6, "lactate per cell with vemurafenib": 1.09}
{"gene": "RHOXF1 (Rhox homeobox family member 1)", "cell gain with vemurafenib": 0.31, "lactate per cell with vemurafenib": 0.8}
{"gene": "PPIP5K1 (diphosphoinositol pentakisphosphate kinase 1)", "cell gain with vemurafenib": 0.82, "lactate per cell with vemurafenib": 0.5}
{"gene": "ARHGDIB (Rho GDP dissociation inhibitor beta)", "cell gain with vemurafenib": 0.99, "lactate per cell with vemurafenib": 0.7}
{"gene": "RPL10 (ribosomal protein L10)", "cell gain with vemurafenib": -0.01, "lactate per cell with vemurafenib": 2.41}
{"gene": "UGCG (UDP-glucose ceramide glucosyltransferase)", "cell gain with vemurafenib": 0.09, "lactate per cell with vemurafenib": 2.14}
{"gene": "F10 (coagulation factor X)", "cell gain with vemurafenib": 0.5, "lactate per cell with vemurafenib": 0.93}
{"gene": "GABRB1 (gamma-aminobutyric acid type A receptor subunit beta1)", "cell gain with vemurafenib": "0.38 (active)", "lactate per cell with vemurafenib": 0.6}
{"gene": "PKD2 (polycystin 2, transient receptor potential cation channel)", "cell gain with vemurafenib": 0.39, "lactate per cell with vemurafenib": 0.97}
{"gene": "HOXB5 (homeobox B5)", "cell gain with vemurafenib": 0.82, "lactate per cell with vemurafenib": 0.8}
